PubChem BioAssay AID1508587, Peter MacCallum Cancer Centre, 2020
Test: 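Retest of knockdowns boosting BRAF inhibitor action on lactate release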 (follow-up of hits). Cell system: human WM266.4 melanoma cells with a BRAF V600 mutation. Knock-down reagent: single siRNA against human genes, 25 nM. Duration: 96 h. Treatment: vemurafenib 300 nM (about IC25), given 48 h after transfection for 48 h. Measurement: 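Medium lactate read by absorbance over DAPI-counted nuclei; ratio with versus without vemurafenib, set against non-targeting siRNA, averaged over 2 replicates; cell number also recorded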. Direction: lactate per cell, drug vs no drug: higher = less drug-induced drop in lactate per cell; lactate per cell with vemurafenib: higher = more lactate per cell under drug; lactate per cell without drug: higher = more lactate per cell without drug; cell growth with vemurafenib and cell growth without drug: higher = more cell growth over 48 h. Active means: 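a duplex is active when its lactate-per-cell ratio with versus without drug falls under 0.55, i.e. 2 SD below non-targeting; a gene is confirmed if 2 or more of 4 duplexes pass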.
The whole screen tested about 1,600 reagents; this is a part drawn at random. Of all reagents, 623 (39%) got an active call. 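Calls are for each duplex; lactate ratios contain extreme outliers.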 Reagents against one gene are numbered here.

The opening 4 entries, ahead of the listing:
target	siRNA no.	lactate per cell, drug vs no drug	lactate per cell with vemurafenib	lactate per cell without drug	cell growth with vemurafenib	cell growth without drug	Call
ETNK2	1	0.44	0.98	1.42	0.32	0.29	active
ETNK2	2	0.51	0.94	1.21	0.07	0.12	active
ETNK2	3	0.52	0.62	0.74	0.87	0.99	active
ETNK2	4	0	0	0.74	0.08	0.29	active

Main list, from the first entry:
target	siRNA no.	lactate per cell, drug vs no drug	lactate per cell with vemurafenib	lactate per cell without drug	cell growth with vemurafenib	cell growth without drug	Call
ETNK2	1	0.44	0.98	1.42	0.32	0.29	active
ETNK2	2	0.51	0.94	1.21	0.07	0.12	active
ETNK2	3	0.52	0.62	0.74	0.87	0.99	active
ETNK2	4	0	0	0.74	0.08	0.29	active
TUBB2A	1	1.39	3.08	1.54	-0.13	0.36	inactive
TUBB2A	2	0.69	1.12	1.06	0.79	0.9	inactive
TUBB2A	3	0.62	1.64	1.76	0.85	0.7	inactive
TUBB2A	4	0.74	2.44	2.14	0.18	0.17	inactive
ANKRD13C	1	0.59	1.08	1.27	0.74	0.62	inactive
ANKRD13C	2	0.82	2.24	1.86	-0.1	0.05	inactive
ANKRD13C	3	0.61	1.17	1.29	0.41	0.23	inactive
ANKRD13C	4	0.5	0.9	1.23	0.63	0.41	active
LYRM2	1	0.66	1.02	1.05	0.75	0.73	inactive
LYRM2	2	0.38	1.52	2.85	-0.01	-0.02	active
LYRM2	3	0.51	0.76	1.02	1.27	0.83	active
LYRM2	4	0.7	0.9	0.9	0.77	0.67	inactive
NSRP1	1	0.56	1.34	1.47	0.63	0.43	inactive
NSRP1	2	0.64	1.91	1.85	0.08	0.15	inactive
NSRP1	3	0.48	0.69	0.92	0.73	0.69	active
NSRP1	4	0.56	4.62	5.21	-0.02	-0.02	inactive
TRAPPC1	1	0.52	1.1	1.5	0.5	0.54	active
TRAPPC1	2	0.3	0.4	0.98	0.2	0.37	active
TRAPPC1	3	0.77	1.09	1.05	0.87	0.96	inactive
TRAPPC1	4	0.72	1.33	1.34	0.93	0.76	inactive
AKR1C1	1	0.64	2.34	2.44	0.22	0.19	inactive
AKR1C1	2	0.64	1.21	1.3	0.5	0.48	inactive
AKR1C1	3	0.66	1.42	1.39	0.37	0.48	inactive
AKR1C1	4	0.69	3.04	3.06	0.22	0.13	inactive
MRPL9	1	0.34	1.22	2.42	0.03	0.05	active
MRPL9	2	0.52	0.72	0.9	0.63	0.59	active
MRPL9	3	0.73	1.46	1.31	0.84	0.84	inactive
MRPL9	4	0.68	1.25	1.2	1.15	1.15	inactive
HECTD2	1	0.5	1.49	1.73	0.49	0.23	active
HECTD2	2	0.48	1.03	1.27	0.48	0.38	active
HECTD2	3	0.52	1.5	1.69	0.54	0.47	active
HECTD2	4	0.55	1.1	1.19	0.53	0.49	inactive
ZNF271P	1	0.78	1.56	1.38	0.25	0.4	inactive
ZNF271P	2	0.62	1.63	1.77	0.5	0.28	inactive
ZNF271P	3	0.4	0.52	0.92	0.04	0.46	active
ZNF271P	4	0.66	2.63	2.74	0.15	0.14	inactive
CCAR1	1	0.64	1.14	1.09	0.55	0.75	inactive
CCAR1	2	0.51	0.7	0.85	0.94	1.01	active
CCAR1	3	0.52	0.88	1.04	0.96	0.99	active
CCAR1	4	0.56	0.91	1.04	0.97	0.75	inactive
CT47A2	1	0.6	0.94	1.12	0.92	0.85	inactive
CT47A2	2	0.84	1.8	1.5	0.53	0.43	inactive
CT47A2	3	0.8	1.74	1.64	0.22	0.24	inactive
CT47A2	4	0.39	0.52	0.95	0.56	0.55	active
HTR5A	1	0.68	2.56	2.4	0.28	0.16	inactive
HTR5A	2	0.68	1.38	1.27	0.18	0.35	inactive
HTR5A	3	0.6	0.77	0.81	0.96	1.09	inactive
HTR5A	4	0.75	1	0.85	0.52	0.67	inactive
DHRS11	1	0.64	1.14	1.03	0.52	0.86	inactive
DHRS11	2	0.78	2.12	1.58	0.11	0.33	inactive
DHRS11	3	0.78	1.16	0.88	0.56	0.9	inactive
DHRS11	4	0.56	0.86	0.92	0.32	0.52	inactive
SGTA	1	0.12	0.32	1.69	-0.22	-0.19	active
SGTA	2	0.92	4.42	3.23	-0.18	-0.06	inactive
SGTA	3	0.65	1.28	1.34	0.55	0.44	inactive
SGTA	4	1.01	1.39	0.94	0.26	0.28	inactive
RAB34	1	0.59	4.89	5.73	0.05	0	inactive
RAB34	2	0.86	2.48	1.97	0.09	0.07	inactive
RAB34	3	0.78	0.69	0.65	0.46	0.52	inactive
RAB34	4	0.92	2.38	1.77	0.22	0.4	inactive
